{"source": "PubChem BioAssay AID662", "about": "(National Center for Advancing Translational Sciences (NCATS), 2007)", "note": "The list shows a part of the results. Further columns of the screen follow, without active or inactive calls. Most of these compounds were active or inconclusive in the main read-out, so they are no random draw. Words in brackets tell the shape of the fitted curve; partial curves, single points and poor fits give uncertain potencies."}
{"test": "Cell signaling CRE-BLA (Fsk stim)", "settings": "CHO CRE-bla reporter (cAMP response element driving beta-lactamase), forskolin EC10, beta-lactamase ratio; measured here: 460 nm blue channel", "in_short": "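Reporter-gene assay: CHO cells with beta-lactamase behind cAMP responsive elements, co-treated with compound and EC10 NKH 477 for 3 hours at 37 degrees Celsius. Activity came from the 460/530 nm CCF4 emission ratio.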"}
{"smiles": "COc1cc2c(cc1OC)-c1nnnn1C(C)(C)C2", "AC50": "12.6 µM [rising, partial curve]"}
{"smiles": "Cc1ccc(S(=O)(=O)N2CCOCC2)cc1C(=O)O", "AC50": "10 µM [rising, partial curve]"}
{"smiles": "Cc1nc(Nc2ccc3c(c2)OCCO3)c2nnn(Cc3ccccc3Cl)c2n1", "AC50": "0.2 µM [falling, full curve, poor fit]"}
{"smiles": "CCn1c(C2CC(=O)N(c3ccc(C)c(C)c3)C2)nc2ccccc21", "note": "(configuration not stated)", "AC50": "7.94 µM [rising, partial curve]"}
{"smiles": "COc1cccc(C2C(C#N)=C(N)OC3=C2C(=O)CC(c2ccco2)C3)c1OCc1ccc(F)cc1", "note": "(configuration not stated)", "AC50": "3.98 µM [rising, single point]"}
{"smiles": "COc1ccc(CCNc2nc(-c3sc(N)nc3C)cs2)cc1OC", "AC50": "2.51 µM [rising, partial curve]"}
{"smiles": "O=C(CSc1nnnn1-c1ccc2c(c1)CCC2)Nc1ccc2c(c1)OCCO2", "AC50": "6.31 µM [falling, partial curve]"}
{"smiles": "N#CCn1c(C2CCCCC2)nc2ccccc2c1=O", "AC50": "1.58 µM [rising, full curve]"}
{"smiles": "O=C(O)c1ccccc1C(=O)OCCCCOC(=O)c1ccccc1C(=O)O", "AC50": "0.251 µM [rising, full curve]"}
{"smiles": "O=C(CNS(=O)(=O)c1ccc(Br)s1)NCc1ccc2c(c1)OCO2", "AC50": "0.02 µM [falling, full curve, poor fit]"}
{"smiles": "CC(=O)Cc1nsc(NC(=O)c2ccc(Br)o2)n1", "AC50": "0.00398 µM [falling, full curve]"}
{"smiles": "CCCn1c(CCC(=O)O)ccc1-c1ccc(OC)cc1", "AC50": "25.1 µM [rising, single point]"}
{"smiles": "COc1ccc(-c2nc(C(N)=O)c3[nH]c(=O)n(-c4cccc(C)c4)c3n2)c(OC)c1", "AC50": "5.01 µM [rising, partial curve]"}
{"smiles": "CCOC(=O)COc1ccc2cc(C(=O)OCC)c(=O)oc2c1", "AC50": "1.26 µM [rising, partial curve, poor fit]"}
{"smiles": "CCCCCCn1c(CN2CCN(C(=O)c3ccco3)CC2)nc2c1c(=O)n(C)c(=O)n2C", "AC50": "12.6 µM [rising, partial curve]"}
{"smiles": "CN1CCN(c2ncc3nc(-c4ccc(Cl)cc4)c(=O)n(Cc4ccc(F)cc4)c3n2)CC1", "AC50": "1.58 µM [rising, full curve]"}
{"smiles": "Nc1ccc2nc(-c3ccc(Cl)cc3)[nH]c2c1", "AC50": "10 µM [rising, partial curve]"}
{"smiles": "Cc1ccc(C2C(C(=O)c3sc(C)nc3C)=C(O)C(=O)N2CCCN(C)C)o1", "note": "(configuration not stated)", "AC50": "25.1 µM [falling, single point]"}
{"smiles": "O=C(c1ccccc1)n1nc(-c2ccccc2)nc1NCc1ccco1", "AC50": "6.31 µM [falling, partial curve]"}
{"smiles": "CCOC(=O)/C(C(C)=O)=C1\\OC(=O)c2ccccc21", "AC50": "0.398 µM [falling, full curve, poor fit]"}
{"smiles": "CN(C)c1nc(-c2cccnc2)nc2ccccc12", "AC50": "12.6 µM [rising, partial curve]"}
{"smiles": "Cc1cccc(N(CC(=O)Nc2ccc(CC#N)cc2)S(C)(=O)=O)c1", "AC50": "2.51 µM [falling, single point]"}
{"smiles": "O=S1(=O)C=C(Sc2nc3cc(Cl)ccc3o2)c2ccccc21", "AC50": "0.794 µM [falling, full curve]"}
{"smiles": "CC(=O)Nc1c(OC(C)=O)ccc2c(C)cc(=O)oc12", "AC50": "12.6 µM [rising, partial curve]"}
{"smiles": "CC1=C(C(=O)OCc2ccccc2)C(c2ccc(C3CCCCC3)cc2)NC(=O)N1CCCCCC(=O)O", "note": "(configuration not stated)", "AC50": "3.98 µM [rising, single point]"}
{"smiles": "CCOC(=O)c1[nH]c2c(c1C)C(=O)CC(c1ccco1)C2", "note": "(configuration not stated)", "AC50": "1.26 µM [rising, full curve]"}
{"smiles": "CCn1c(=O)c(C(=O)CN2CCCc3ccccc32)c(N)n(Cc2ccccc2)c1=O", "AC50": "3.98 µM [falling, partial curve]"}
{"smiles": "COc1ccc(C2OC(=O)c3ccccc3S2)cc1", "note": "(configuration not stated)", "AC50": "0.794 µM [rising, full curve, poor fit]"}
{"smiles": "O=C(NCCN1CCN(c2ccccc2)CC1)c1cccn2c(=O)c3ccccc3nc12", "AC50": "3.16 µM [rising, partial curve]"}
{"smiles": "NCCn1c(=O)c(CCc2ccccc2)nc2cncnc21", "AC50": "15.8 µM [rising, single point]"}
{"smiles": "Cc1cc(C)c2nc(C(F)(F)F)nc(NCCCN3CCCC3=O)c2c1", "AC50": "3.98 µM [falling, single point]"}
{"smiles": "Nc1cc(-c2nn[nH]n2)ccc1F", "AC50": "0.316 µM [falling, partial curve]"}
{"smiles": "CN1C(=O)CSc2ccc(NC(=O)N3CCN(c4ccccn4)CC3)cc21", "AC50": "0.00398 µM [falling, full curve, poor fit]"}
{"smiles": "COc1ccc(CCNC(=O)c2noc3c2CCCC3)cc1OC", "AC50": "10 µM [rising, partial curve]"}
{"smiles": "Cc1cccc(N2CCN(C(=O)c3ccc(N4CCCC4=O)cc3)CC2C)c1", "note": "(configuration not stated)", "AC50": "10 µM [rising, single point]"}
{"smiles": "CN(C)CCCCCNCCCNC(=O)/C=N\\O", "AC50": "0.00316 µM [falling, full curve, poor fit]"}
{"smiles": "CCOC(=O)N1CCN(Cc2oc(CO)cc(=O)c2O)CC1", "AC50": "0.1 µM [falling, single point]"}
{"smiles": "CCOC(=O)C(C)Oc1cccc2c(=O)n(CC(=O)NCc3ccco3)ccc12", "note": "(configuration not stated)", "AC50": "12.6 µM [rising, partial curve]"}
{"smiles": "c1ccc(Cn2ccnc2SCc2nnc(-c3ccccc3)o2)cc1", "AC50": "15.8 µM [rising, single point]"}
{"smiles": "Cc1ccc(-c2noc(CCC(=O)NC3CCN(Cc4ccccc4)CC3)n2)cc1", "AC50": "25.1 µM [falling, single point]"}
{"smiles": "Oc1c(CN2CCOCC2)cc(-c2ccccc2)cc1CN1CCOCC1", "AC50": "0.1 µM [falling, full curve, poor fit]"}
{"smiles": "CCCCCOC(=O)C1=C(C)N(C)C(=O)NC1c1cc(Br)c(O)c(OC)c1", "note": "(configuration not stated)", "AC50": "10 µM [rising, partial curve]"}
{"smiles": "N#CCCN1CCN(C(=S)c2ccc(-c3ccc(Cl)c(Cl)c3)o2)CC1", "AC50": "2.51 µM [rising, partial curve]"}
{"smiles": "CC(=O)Nc1ccc(OCC(O)CN2CCN(c3cccc(Cl)c3)CC2)cc1", "note": "(configuration not stated)", "AC50": "0.126 µM [rising, full curve, poor fit]"}
{"smiles": "Cc1ccc(-c2cn3cccnc3n2)cc1NC(=O)c1c(-c2ccccc2Cl)noc1C", "AC50": "1.58 µM [falling, partial curve]"}
{"smiles": "COc1ccc(-c2cc(C(F)(F)F)nc(SCC(=O)NCc3ccco3)n2)cc1OC", "AC50": "12.6 µM [rising, partial curve]"}
{"smiles": "CN1CCN(CCCNC(=O)c2cc3c(-c4ccc(Cl)cc4)nn(C)c3s2)CC1", "AC50": "7.94 µM [rising, partial curve]"}
{"smiles": "O=C(COc1ccccc1)N1CCc2ccccc2C1", "AC50": "25.1 µM [falling, single point]"}
{"smiles": "COc1ccccc1N1CCN(Cc2ccco2)CC1", "AC50": "3.16 µM [falling, full curve]"}
{"smiles": "COCC(=O)Nc1ccc(-c2cn3cccnc3n2)cc1", "AC50": "2.51 µM [falling, partial curve]"}
{"smiles": "COc1ccccc1CNc1nc(-c2cccc(C#N)c2)nc2ccccc12", "AC50": "3.16 µM [rising, partial curve]"}
{"smiles": "Cc1ccc2[nH]c(=O)c(CN(CCCO)S(=O)(=O)c3cccc4nsnc34)cc2c1", "AC50": "25.1 µM [rising, single point]"}
{"smiles": "Cc1cc(N2CCCCC2)n2ncc(-c3ccc(Cl)cc3)c2n1", "AC50": "12.6 µM [rising, partial curve]"}
{"smiles": "CCOC(=O)c1cc(-c2cc3ccccc3o2)n[nH]1", "AC50": "5.01 µM [falling, single point]"}
{"smiles": "COC(=O)c1[nH]c2cc(OC)c(OC)cc2c1NC(=O)c1cccc(OC)c1", "AC50": "12.6 µM [rising, partial curve]"}
{"smiles": "COC(=O)[C@@]1(Cc2ccc(F)cc2)[C@H]2c3cc(C(=O)N(C)C)n(CCc4ccc(O)c(O)c4)c3C[C@H]2CN1C(=O)c1ccccc1", "AC50": "10 µM [falling, single point]"}
{"smiles": "CC1=C(\\C=C/C(C)=C/C=C\\C(C)=C\\C(=O)O)C(C)(C)CCC1", "AC50": "0.1 µM [falling, full curve, poor fit]"}
{"smiles": "c1ccc(CNc2ccnc(-c3cccnc3)n2)cc1", "AC50": "3.16 µM [rising, full curve]"}
{"smiles": "c1ccc(-n2cnnc2SCc2cn3ccccc3n2)cc1", "AC50": "5.01 µM [falling, single point]"}
{"smiles": "CC(=O)N1CCN(CCN=CC2=C(O)CC(c3ccco3)CC2=O)CC1", "note": "(configuration not stated)", "AC50": "0.316 µM [rising, partial curve, poor fit]"}
{"smiles": "CCCCN(C)c1nc(-c2ccco2)c2c(c1C#N)CC(C)(C)OC2", "AC50": "10 µM [rising, partial curve]"}
{"smiles": "COc1cc2cc3c(N)c(C(=O)NCc4ccco4)sc3nc2cc1OC", "AC50": "10 µM [rising, single point]"}
{"smiles": "Brc1cccc(-c2nnc(SCc3nc4ccccc4[nH]3)o2)c1", "AC50": "5.01 µM [rising, partial curve]"}
{"smiles": "COc1ccc(OC)c(NC(=O)CSc2nc(N)c(-c3ccccc3)c(=O)[nH]2)c1", "AC50": "10 µM [rising, partial curve]"}
{"smiles": "CN1CCN(c2ncc3nc(CCc4ccccc4)c(=O)n(Cc4ccc(F)cc4)c3n2)CC1", "AC50": "10 µM [rising, partial curve]"}
{"smiles": "COC(=O)c1c(-c2cccc(OC)c2)csc1N", "AC50": "12.6 µM [rising, partial curve]"}
{"smiles": "COc1cc(S(=O)(=O)n2c(C)nc3ccccc32)ccc1F", "AC50": "15.8 µM [rising, single point]"}
